In PMC8274477:
These are yes or no findings as the source states them, for the method shown. Some entries that bind do so weakly or less than the wild type.

Amino acid sequences for entries named in this document (tags omitted).
UniProt Q96AE4: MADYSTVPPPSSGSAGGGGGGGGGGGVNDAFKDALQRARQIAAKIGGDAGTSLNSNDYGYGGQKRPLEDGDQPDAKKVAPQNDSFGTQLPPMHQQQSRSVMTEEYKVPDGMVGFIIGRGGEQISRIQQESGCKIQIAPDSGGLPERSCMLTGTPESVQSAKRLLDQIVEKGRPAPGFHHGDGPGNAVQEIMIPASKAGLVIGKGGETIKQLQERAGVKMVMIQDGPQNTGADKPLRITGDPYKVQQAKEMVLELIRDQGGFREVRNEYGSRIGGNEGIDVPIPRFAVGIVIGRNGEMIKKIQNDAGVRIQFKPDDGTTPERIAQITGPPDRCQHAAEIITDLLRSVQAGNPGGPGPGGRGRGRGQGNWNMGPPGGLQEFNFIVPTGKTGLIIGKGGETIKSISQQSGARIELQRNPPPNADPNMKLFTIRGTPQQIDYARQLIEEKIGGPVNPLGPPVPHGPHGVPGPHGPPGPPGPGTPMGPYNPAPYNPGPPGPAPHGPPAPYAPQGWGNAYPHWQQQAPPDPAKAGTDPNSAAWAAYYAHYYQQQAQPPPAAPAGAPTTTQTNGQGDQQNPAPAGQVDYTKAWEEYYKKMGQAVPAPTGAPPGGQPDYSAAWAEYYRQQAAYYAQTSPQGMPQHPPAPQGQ
UniProt Q00403: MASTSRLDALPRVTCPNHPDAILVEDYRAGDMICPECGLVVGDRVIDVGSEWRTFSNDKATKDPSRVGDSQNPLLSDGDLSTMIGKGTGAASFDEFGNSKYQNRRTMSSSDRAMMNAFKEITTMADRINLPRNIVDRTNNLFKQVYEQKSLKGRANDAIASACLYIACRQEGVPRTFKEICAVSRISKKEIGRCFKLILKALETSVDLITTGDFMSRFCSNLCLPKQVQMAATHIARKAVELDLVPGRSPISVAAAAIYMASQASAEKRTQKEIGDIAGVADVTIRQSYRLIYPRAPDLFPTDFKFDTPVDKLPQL
UniProt O96013: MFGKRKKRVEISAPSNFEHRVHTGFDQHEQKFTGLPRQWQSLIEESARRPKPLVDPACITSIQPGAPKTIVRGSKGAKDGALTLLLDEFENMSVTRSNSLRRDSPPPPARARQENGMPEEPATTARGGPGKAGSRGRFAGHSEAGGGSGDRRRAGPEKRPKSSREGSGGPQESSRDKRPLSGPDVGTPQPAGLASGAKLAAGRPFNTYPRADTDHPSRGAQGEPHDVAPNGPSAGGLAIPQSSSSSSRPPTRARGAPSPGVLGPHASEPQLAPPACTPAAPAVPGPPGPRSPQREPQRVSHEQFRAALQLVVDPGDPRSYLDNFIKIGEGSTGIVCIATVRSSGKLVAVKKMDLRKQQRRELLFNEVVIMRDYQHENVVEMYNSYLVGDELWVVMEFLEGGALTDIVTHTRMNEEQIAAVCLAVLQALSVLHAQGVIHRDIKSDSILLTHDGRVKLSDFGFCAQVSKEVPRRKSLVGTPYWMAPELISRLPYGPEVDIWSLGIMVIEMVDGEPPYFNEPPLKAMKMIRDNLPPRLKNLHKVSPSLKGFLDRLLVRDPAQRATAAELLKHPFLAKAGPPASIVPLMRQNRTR
UniProt Q04726: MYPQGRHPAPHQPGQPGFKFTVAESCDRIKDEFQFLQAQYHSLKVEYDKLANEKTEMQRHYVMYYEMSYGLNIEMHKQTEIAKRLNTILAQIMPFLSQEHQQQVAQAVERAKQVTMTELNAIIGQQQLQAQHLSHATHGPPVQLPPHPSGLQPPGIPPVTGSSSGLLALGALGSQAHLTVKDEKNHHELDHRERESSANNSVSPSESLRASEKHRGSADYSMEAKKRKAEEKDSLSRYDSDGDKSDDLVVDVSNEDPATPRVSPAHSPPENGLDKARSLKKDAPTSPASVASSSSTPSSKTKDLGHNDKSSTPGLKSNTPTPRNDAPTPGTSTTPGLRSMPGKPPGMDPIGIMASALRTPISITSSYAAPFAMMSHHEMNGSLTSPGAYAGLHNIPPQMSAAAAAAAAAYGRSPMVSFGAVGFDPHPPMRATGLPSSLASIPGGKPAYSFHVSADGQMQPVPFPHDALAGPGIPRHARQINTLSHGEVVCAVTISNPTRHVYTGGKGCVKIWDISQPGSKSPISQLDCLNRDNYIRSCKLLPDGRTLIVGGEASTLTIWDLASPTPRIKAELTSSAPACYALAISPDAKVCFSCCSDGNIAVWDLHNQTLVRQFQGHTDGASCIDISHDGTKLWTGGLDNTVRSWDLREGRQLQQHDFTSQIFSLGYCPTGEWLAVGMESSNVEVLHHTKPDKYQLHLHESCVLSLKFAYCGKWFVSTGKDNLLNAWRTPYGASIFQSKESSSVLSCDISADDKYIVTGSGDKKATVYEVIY
UniProt O43516: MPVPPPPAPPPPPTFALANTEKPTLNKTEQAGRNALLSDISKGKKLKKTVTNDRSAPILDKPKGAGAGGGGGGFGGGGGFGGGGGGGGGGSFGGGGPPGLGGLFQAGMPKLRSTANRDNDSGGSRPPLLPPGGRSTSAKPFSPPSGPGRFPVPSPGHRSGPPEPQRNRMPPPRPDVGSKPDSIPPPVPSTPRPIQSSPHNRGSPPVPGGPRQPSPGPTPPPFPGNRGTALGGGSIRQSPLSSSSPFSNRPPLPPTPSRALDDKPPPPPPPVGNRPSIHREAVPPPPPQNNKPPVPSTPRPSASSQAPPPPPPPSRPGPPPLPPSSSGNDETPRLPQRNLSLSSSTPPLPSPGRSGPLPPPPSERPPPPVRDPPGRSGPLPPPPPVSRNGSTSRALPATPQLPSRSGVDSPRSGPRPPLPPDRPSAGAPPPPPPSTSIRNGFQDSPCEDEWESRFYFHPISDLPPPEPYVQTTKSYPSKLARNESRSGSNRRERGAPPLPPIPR

Legend:
Experiment in all cases: peptide or protein array; HuProt human proteome microarray; 5 ug/5 ml biotin-labelled LUBAC or OTULIN in solution, 1 h at room temperature; Cy5-streptavidin, scanned at 635 nm; BSA as negative control; hits: Z-score >= 3 and I_(Mean_Ratio) >= 1.4; both purified
FUBP1 (human) = FUBP1 (human) (UniProt Q96AE4)
GTF2B (human) = GTF2B (human) (UniProt Q00403)
NTPCR (human) = target: T1, NTPCR (human) (UniProt Q9BSD7)
T1 sequence: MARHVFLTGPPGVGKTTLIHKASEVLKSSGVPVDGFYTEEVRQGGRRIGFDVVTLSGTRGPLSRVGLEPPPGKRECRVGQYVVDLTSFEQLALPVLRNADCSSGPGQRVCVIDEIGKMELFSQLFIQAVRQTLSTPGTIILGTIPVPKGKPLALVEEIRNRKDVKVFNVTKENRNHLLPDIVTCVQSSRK

PAK4 (human) = PAK4 (human) (UniProt O96013)
SORD (human) = target: T2, SORD (human) (UniProt Q00796)
T2 sequence: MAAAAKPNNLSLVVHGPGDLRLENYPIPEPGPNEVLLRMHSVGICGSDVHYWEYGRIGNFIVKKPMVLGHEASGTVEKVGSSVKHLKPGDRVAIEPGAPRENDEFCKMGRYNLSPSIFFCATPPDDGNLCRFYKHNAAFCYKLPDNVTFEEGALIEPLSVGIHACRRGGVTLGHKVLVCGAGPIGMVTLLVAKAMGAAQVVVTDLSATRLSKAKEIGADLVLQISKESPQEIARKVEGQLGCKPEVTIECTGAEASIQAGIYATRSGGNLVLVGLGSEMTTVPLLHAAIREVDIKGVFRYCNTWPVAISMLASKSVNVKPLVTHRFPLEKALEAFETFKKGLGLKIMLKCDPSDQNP

SPATC1 (human) = target: T3, SPATC1 (human) (UniProt Q76KD6)
T3 sequence: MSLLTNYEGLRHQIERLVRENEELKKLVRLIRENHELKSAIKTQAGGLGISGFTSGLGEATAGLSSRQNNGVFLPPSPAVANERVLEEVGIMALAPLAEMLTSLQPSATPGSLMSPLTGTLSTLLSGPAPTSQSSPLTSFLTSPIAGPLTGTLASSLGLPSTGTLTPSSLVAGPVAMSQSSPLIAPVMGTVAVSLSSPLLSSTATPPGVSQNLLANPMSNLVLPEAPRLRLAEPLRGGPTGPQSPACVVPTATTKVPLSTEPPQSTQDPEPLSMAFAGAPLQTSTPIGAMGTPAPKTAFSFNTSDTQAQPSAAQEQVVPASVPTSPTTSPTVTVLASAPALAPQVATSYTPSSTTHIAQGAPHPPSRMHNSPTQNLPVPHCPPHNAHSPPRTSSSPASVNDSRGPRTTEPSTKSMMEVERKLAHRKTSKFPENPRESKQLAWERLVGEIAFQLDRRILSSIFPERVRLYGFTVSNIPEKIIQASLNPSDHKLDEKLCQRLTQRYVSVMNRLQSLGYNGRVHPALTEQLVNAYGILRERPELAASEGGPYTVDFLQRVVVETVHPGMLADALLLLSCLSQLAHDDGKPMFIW

SSBP4 (human) = target: T4, SSBP4 (human) (UniProt Q9BWG4)
T4 sequence: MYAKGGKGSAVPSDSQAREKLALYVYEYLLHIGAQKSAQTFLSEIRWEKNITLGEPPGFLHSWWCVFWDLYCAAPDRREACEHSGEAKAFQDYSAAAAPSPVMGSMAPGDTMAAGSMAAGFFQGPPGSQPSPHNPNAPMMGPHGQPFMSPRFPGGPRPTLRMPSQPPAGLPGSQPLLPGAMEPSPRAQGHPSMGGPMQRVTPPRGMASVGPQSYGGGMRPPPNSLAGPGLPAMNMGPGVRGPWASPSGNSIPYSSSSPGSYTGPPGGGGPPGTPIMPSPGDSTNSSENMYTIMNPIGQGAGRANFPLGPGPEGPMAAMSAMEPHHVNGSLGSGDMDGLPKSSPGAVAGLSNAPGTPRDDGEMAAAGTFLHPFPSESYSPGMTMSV

TLE3 (human) = TLE3 (human) (UniProt Q04726)
WIPF1 (human) = WIPF1 (human) (UniProt O43516)

Measured: binding

linear ubiquitin chain assembly complex (LUBAC), purified as HIS-tagged HOIP with the subunit HOIL-1, biotin-labelled (from UniProt Q96EP0 1-1072; Q9BYM8 1-510)
binds: all assays above
